Patent publication US20140343104A1, “OSTEOGENESIS PROMOTER AND USE THEREOF” (National University Corporation Nagoya University, priority 2011, published 2014)

Tests used:
Type in all cases: cell-based
[1] = test system: P1 promoter region of the human Runx2 gene; assay: RUNX2 P1 promoter luciferase reporter assay in BMP-2-induced C3H10T1/2 stable expression strain (primary, secondary, tertiary screening); details: five times of screening (N=6/time); average of 5 times or even at once
From the text: Existing drugs which increase the promoter activity of the transcription factor Runx2 were exhaustively searched by luciferase assay. Firstly, the P1 promoter region of the human Runx2 gene was inserted into the multiple cloning site of the pGL4 luciferase reporter vector (Promega K.K.) (pGL4.10 vector). The pGL4.10 vector was transfected into the undifferentiated mouse mesenchymal cell line C3H10T1/2, and selectively cultured on a G418-containing medium, thereby establishing the stable expression strain. The cells were seeded on a 96-well (day 1), and human BMP-2 was added to each well on day 2, thereby inducing differentiation into osteoblasts. On the following day, the test compounds (10 μM) composing Prestwick Chemical Library (registered trademark) (Prestwick Chemical Ltd.) were added, and the cells were collected 24 hours after, and subjected to luciferase assay.
In addition to the compounds which made the reporter activity of luciferase (average of 5 times) 1.5 times that of the control, those made the activity 1.5 times than that of the control even at once were selected.

luciferase protein = assay: double luciferase assay, pGL4.10 basic vector and phRL vector cotransfected into C3H10T1/2 cells; details: pGL4.10 [luc2/SV40] basic vector and phRL [hRluc/TK] vector
Procedure: In order to exclude the possibility of the potential agent to increase the enzymatic activity of luciferase protein, the pGL4. 10 basic vector (pGL4.10 [luc2/SV40] basic vector) and phRLvector (phRL [hRluc/TK] vector) were cotransfected into the C3H10T1/2 cells, the potential agents were individually added, and double luciferase assay was performed.

[2] = test system: P1 promoter region of the human Runx2 gene; assay: RUNX2 P1 promoter luciferase reporter assay in BMP-2-induced C3H10T1/2 stable expression strain (primary, secondary, tertiary screening); details: three times of screening (N=6/time) at 8 levels of concentration

secondary screening: reporter activity of luciferase 1.5 times that of the control [1]: selected
tertiary screening: concentration dependency of the promotion of RUNX2 promoter activity [2]: concentration dependency
Structure (SMILES): Cl.Nc1nc2ccc(OC(F)(F)F)cc2s1 [riluzole hydrochloride, 6-(trifluoromethoxy)-1,3-benzothiazol-2-amine hydrochloride]
specificity of RUNX2 promoter promotion versus increase of luciferase activity (luciferase protein): slightly increase the luciferase activity
